Measured values as given in the supplement of paper PMC4862054.
Most entries show no effect beyond the scatter of the controls.

Assays:
Assay in all cases: normalised response (% of control), CellTox Green; higher = less cell death (100 = DMSO, 0 = benzethonium chloride kill control)
Conditions in all cases: incubation time: 72 h
HCC1599 [1] = system: HCC1599
Protocol: (§1)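 DSRT, 72 h incubation, CellTox Green / CellTiter-Glo readout. Signal is normalised to DMSO and benzethonium chloride controls. Value is the normalised response at dose 2.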

Hs578T [2] = system: Hs578T
Protocol: as §1

BT-474 [3] = system: BT-474
Protocol: as §1

HCC1143 [4] = system: HCC1143
Protocol: as §1

MDA-MB-231 [5] = system: MDA-MB-231
Protocol: as §1

MFM-223 [6] = system: MFM-223
Protocol: as §1

CAL-51 [7] = system: CAL-51
Protocol: as §1

DU-4475 [8] = system: DU-4475
Protocol: as §1

MDA-MB-436 [9] = system: MDA-MB-436
Protocol: as §1

BT-549 [10] = system: BT-549
Protocol: as §1

MDA-MB-468 [11] = system: MDA-MB-468
Protocol: as §1

CAL-120 [12] = system: CAL-120
Protocol: as §1

CAL-85-1 [13] = system: CAL-85-1
Protocol: as §1

CAL-148 [14] = system: CAL-148
Protocol: as §1

MDA-MB-453 [15] = system: MDA-MB-453
Protocol: as §1

HDQ-P1 [16] = system: HDQ-P1
Protocol: as §1

MCF-10A [17] = system: MCF-10A
Protocol: as §1

HCC1599 [18] = system: HCC1599; remark: listed apart in the source
Protocol: (§2)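 DSRT, 72 h incubation, CellTox Green / CellTiter-Glo readout. Signal is normalised to DMSO and benzethonium chloride controls. Value is the normalised response at the lowest tested concentration.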

Hs578T [19] = system: Hs578T; remark: listed apart in the source
Protocol: as §2

BT-474 [20] = system: BT-474; remark: listed apart in the source
Protocol: as §2

HCC1143 [21] = system: HCC1143; remark: listed apart in the source
Protocol: as §2

MDA-MB-231 [22] = system: MDA-MB-231; remark: listed apart in the source
Protocol: as §2

MFM-223 [23] = system: MFM-223; remark: listed apart in the source
Protocol: as §2

CAL-51 [24] = system: CAL-51; remark: listed apart in the source
Protocol: as §2

DU-4475 [25] = system: DU-4475; remark: listed apart in the source
Protocol: as §2

MDA-MB-436 [26] = system: MDA-MB-436; remark: listed apart in the source
Protocol: as §2

BT-549 [27] = system: BT-549; remark: listed apart in the source
Protocol: as §2

MDA-MB-468 [28] = system: MDA-MB-468; remark: listed apart in the source
Protocol: as §2

CAL-120 [29] = system: CAL-120; remark: listed apart in the source
Protocol: as §2

CAL-85-1 [30] = system: CAL-85-1; remark: listed apart in the source
Protocol: as §2

MDA-MB-453 [31] = system: MDA-MB-453; remark: listed apart in the source
Protocol: as §2

HDQ-P1 [32] = system: HDQ-P1; remark: listed apart in the source
Protocol: as §2

MCF-10A [33] = system: MCF-10A; remark: listed apart in the source
Protocol: as §2

CAL-148 [34] = system: CAL-148; remark: listed apart in the source
Protocol: as §2

| SMILES | normalised response (HCC1599 [1]) | normalised response (Hs578T [2]) | normalised response (BT-474 [3]) | normalised response (HCC1143 [4]) | normalised response (MDA-MB-231 [5]) | normalised response (MFM-223 [6]) | normalised response (CAL-51 [7]) | normalised response (DU-4475 [8]) | normalised response (MDA-MB-436 [9]) | normalised response (BT-549 [10]) | normalised response (MDA-MB-468 [11]) | normalised response (CAL-120 [12]) | normalised response (CAL-85-1 [13]) | normalised response (CAL-148 [14]) | normalised response (MDA-MB-453 [15]) | normalised response (HDQ-P1 [16]) | normalised response (MCF-10A [17]) | normalised response (HCC1599 [18]) | normalised response (Hs578T [19]) | normalised response (BT-474 [20]) | normalised response (HCC1143 [21]) | normalised response (MDA-MB-231 [22]) | normalised response (MFM-223 [23]) | normalised response (CAL-51 [24]) | normalised response (DU-4475 [25]) | normalised response (MDA-MB-436 [26]) | normalised response (BT-549 [27]) | normalised response (MDA-MB-468 [28]) | normalised response (CAL-120 [29]) | normalised response (CAL-85-1 [30]) | normalised response (MDA-MB-453 [31]) | normalised response (HDQ-P1 [32]) | normalised response (MCF-10A [33]) | normalised response (CAL-148 [34]) |
| --- | --- | --- | --- | --- | --- | --- | --- | --- | --- | --- | --- | --- | --- | --- | --- | --- | --- | --- | --- | --- | --- | --- | --- | --- | --- | --- | --- | --- | --- | --- | --- | --- | --- | --- |
| COc1cccc2c1C(=O)c1c(O)c3c(c(O)c1C2=O)C[C@@](O)(C(=O)CO)C[C@@H]3O[C@H]1C[C@H](N)[C@H](O)[C@H](C)O1 [Doxorubicin] (1 nM) | 111% | 105% | 83.5% | 113% | 95.8% | 101% | 103% | 112% | 70.6% | 99% | 84.8% | 104% | 96.8% | 63.7% | 112% | 115% | 120% | – | – | – | – | – | – | – | – | – | – | – | – | – | – | – | – | – |
| Nc1ccn([C@@H]2O[C@H](CO)[C@@H](O)C2(F)F)c(=O)n1 [Gemcitabine] (1 nM) | 93.1% | – | 99% | 112% | 97.3% | 84.1% | 78.2% | 96.6% | 83.8% | 63.1% | 95% | 93.6% | 107% | 105% | 96.9% | – | 94% | – | – | – | – | – | – | – | – | – | – | – | – | – | – | – | – | – |
| CCN1CCN(c2ccc(Nc3cc(N(C)C(=O)Nc4c(Cl)c(OC)cc(OC)c4Cl)ncn3)cc2)CC1 [NVP-BGJ398] (0.1 nM) | – | – | – | – | – | – | – | – | – | – | – | – | – | – | – | – | – | 98.7% | 109% | 97.7% | 66.8% | 96.6% | 95.6% | 86.4% | 98.3% | 83.1% | 96.8% | 122% | 105% | 96.8% | 85% | 95% | 80.3% | – |
| NS(=O)(=O)OC[C@@H]1C[C@@H](n2ccc3c(N[C@H]4CCc5ccccc54)ncnc32)C[C@@H]1O [Pevonedistat] (1 nM) | – | – | – | – | – | – | – | – | – | – | – | – | – | – | – | – | – | 118% | 120% | 102% | 128% | 114% | 99.3% | 107% | 113% | 97.9% | 110% | 70.8% | 106% | 105% | 104% | 108% | 109% | 91.5% |
| CO[C@H]1C[C@@H]2CC[C@@H](C)[C@@](O)(O2)C(=O)C(=O)N2CCCC[C@H]2C(=O)O[C@H]([C@H](C)C[C@@H]2CC[C@@H](OP(C)(C)=O)[C@H](OC)C2)CC(=O)[C@H](C)/C=C(\C)[C@@H](O)[C@@H](OC)C(=O)[C@H](C)C[C@H](C)/C=C/C=C/C=C/1C [Ridaforolimus] (0.01 nM) | – | – | – | – | – | – | – | – | – | – | – | – | – | – | – | – | – | 89.5% | 113% | 101% | 124% | 96.5% | 102% | 132% | 100% | 60.9% | 85.1% | 81.8% | 98.3% | 111% | 96.9% | – | 105% | 103% |
| CC1=C(/C=C/C(C)=C/C=C/C(C)=C/C(=O)O)C(C)(C)CCC1 [Tretinoin] (1 nM) | – | – | – | – | – | – | – | – | – | – | – | – | – | – | – | – | – | 118% | 101% | 97.7% | 114% | 119% | 96.1% | 113% | 110% | 73.9% | 99.2% | 102% | 100% | 101% | 101% | 71.2% | 102% | 93.5% |
| CN[C@@H]1C[C@H]2O[C@@](C)([C@@H]1OC)n1c3ccccc3c3c4c(c5c6ccccc6n2c5c31)C(=O)N[C@H]4O [UCN-01] (1 nM) | – | – | – | – | – | – | – | – | – | – | – | – | – | – | – | – | – | 103% | 72.2% | 103% | 122% | 87.5% | 101% | 105% | 99.8% | 89% | 97.6% | 94.1% | 97.2% | 97.5% | 108% | 81.8% | 104% | 103% |
| CN[C@@H]1C[C@H]2O[C@@](C)([C@@H]1OC)n1c3ccccc3c3c4c(c5c6ccccc6n2c5c31)C(=O)N[C@H]4O [UCN-01] (10 nM) | 105% | 91.7% | 102% | 117% | 79.6% | 96.7% | 98.1% | 109% | – | 93.8% | 64.4% | 101% | 93.2% | 104% | 99.7% | 95.2% | 65.6% | – | – | – | – | – | – | – | – | – | – | – | – | – | – | – | – | – |
